The record followed here is PMC11046469, “Leveraging a Phage-Encoded Noncanonical Amino Acid: A Novel Pathway to Potent and Selective Epigenetic Reader Protein Inhibitors” (ACS Central Science, 2024).

Results are given in words; binding and its absence hold for the method and conditions named. Sequences can lack the tags named with a protein.

For this experiment, the target named is T1, 6xHis-tagged ENL YEATS domain (human, UniProt Q03111 1-148).
T1 chain: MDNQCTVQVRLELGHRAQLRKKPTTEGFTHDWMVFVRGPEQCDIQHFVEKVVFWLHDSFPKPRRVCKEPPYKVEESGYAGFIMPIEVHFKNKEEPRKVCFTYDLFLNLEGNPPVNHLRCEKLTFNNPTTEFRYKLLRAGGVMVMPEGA
The experiment can be described thus: AlphaScreen or HTRF; competition: biotinylated H3K27cr peptide on streptavidin donor beads, His-ENL YEATS on nickel-chelating (Ni-NTA) acceptor beads; test peptide varied; n = 3; both purified. On the technique in general: Alpha assays give light when donor and acceptor beads are brought close together.

With YDVYCYA [ENL-S1 with BuK replaced by alanine], the binding entry is “no binding”.
